# In the supplement of paper PMC12823440, “Inhibitors supercharge kinase turnover through native proteolytic circuits” (Nature, 2025):
# Amino acid sequences for entries named in this document (tags omitted). A change or cut given only in a name is not applied to a line headed by its entry.
# UniProt P50613: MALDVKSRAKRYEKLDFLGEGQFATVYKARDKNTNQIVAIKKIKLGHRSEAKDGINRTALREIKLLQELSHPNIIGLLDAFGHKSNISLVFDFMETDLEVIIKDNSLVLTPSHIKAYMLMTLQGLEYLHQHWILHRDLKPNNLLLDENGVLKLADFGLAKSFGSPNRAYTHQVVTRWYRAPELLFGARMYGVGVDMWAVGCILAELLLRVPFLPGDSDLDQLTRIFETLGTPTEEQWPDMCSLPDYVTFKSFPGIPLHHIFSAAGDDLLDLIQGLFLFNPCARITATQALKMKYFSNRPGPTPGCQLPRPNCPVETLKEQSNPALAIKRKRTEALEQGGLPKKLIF
# UniProt P50750, whole entry: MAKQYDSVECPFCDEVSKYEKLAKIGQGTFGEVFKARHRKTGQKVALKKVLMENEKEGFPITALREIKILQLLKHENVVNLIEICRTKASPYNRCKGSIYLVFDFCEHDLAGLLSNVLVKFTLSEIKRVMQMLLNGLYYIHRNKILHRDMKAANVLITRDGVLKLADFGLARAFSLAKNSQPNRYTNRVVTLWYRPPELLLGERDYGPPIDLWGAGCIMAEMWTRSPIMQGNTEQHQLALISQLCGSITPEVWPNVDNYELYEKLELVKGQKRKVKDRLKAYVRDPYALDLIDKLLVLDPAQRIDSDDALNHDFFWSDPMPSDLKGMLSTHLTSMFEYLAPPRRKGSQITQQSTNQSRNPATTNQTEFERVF
# UniProt O96017, whole entry: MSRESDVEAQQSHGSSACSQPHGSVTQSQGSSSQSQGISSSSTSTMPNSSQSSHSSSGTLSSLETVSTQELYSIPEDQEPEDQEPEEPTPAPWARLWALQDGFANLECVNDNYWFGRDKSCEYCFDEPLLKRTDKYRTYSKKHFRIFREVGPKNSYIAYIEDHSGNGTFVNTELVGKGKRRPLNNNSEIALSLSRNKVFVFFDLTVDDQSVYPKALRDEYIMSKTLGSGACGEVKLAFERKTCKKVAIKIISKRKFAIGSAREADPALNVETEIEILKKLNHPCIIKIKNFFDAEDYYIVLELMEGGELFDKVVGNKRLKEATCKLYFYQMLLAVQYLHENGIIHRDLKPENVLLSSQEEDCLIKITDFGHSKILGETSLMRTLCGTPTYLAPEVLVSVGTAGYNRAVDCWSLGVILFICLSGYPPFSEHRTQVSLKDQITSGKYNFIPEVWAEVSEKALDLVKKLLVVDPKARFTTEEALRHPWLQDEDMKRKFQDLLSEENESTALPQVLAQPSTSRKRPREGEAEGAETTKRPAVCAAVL
# UniProt P07333, whole entry: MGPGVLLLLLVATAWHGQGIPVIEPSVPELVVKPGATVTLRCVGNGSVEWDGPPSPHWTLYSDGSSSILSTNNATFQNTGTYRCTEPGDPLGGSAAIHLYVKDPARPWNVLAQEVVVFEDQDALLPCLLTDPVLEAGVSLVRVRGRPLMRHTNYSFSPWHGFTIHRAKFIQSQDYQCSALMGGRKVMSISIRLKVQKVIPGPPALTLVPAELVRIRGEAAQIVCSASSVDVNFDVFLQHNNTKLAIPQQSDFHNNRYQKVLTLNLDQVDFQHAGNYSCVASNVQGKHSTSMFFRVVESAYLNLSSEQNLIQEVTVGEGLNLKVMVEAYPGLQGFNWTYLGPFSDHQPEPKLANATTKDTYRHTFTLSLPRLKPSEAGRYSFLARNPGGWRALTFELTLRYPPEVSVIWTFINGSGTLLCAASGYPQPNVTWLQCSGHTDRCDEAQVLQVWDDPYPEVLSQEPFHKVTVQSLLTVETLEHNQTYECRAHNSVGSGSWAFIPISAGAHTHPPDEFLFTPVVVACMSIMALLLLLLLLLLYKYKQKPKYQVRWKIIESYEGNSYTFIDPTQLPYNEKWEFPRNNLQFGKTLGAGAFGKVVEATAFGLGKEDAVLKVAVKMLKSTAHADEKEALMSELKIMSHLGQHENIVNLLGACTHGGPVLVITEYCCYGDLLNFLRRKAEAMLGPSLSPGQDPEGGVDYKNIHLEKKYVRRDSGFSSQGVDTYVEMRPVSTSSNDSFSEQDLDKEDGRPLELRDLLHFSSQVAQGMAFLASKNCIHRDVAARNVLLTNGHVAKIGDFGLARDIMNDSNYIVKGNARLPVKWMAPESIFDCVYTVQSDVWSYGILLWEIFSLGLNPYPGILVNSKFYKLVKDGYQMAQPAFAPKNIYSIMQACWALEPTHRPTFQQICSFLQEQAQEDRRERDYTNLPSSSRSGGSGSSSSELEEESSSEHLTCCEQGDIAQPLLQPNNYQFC
# UniProt P41240: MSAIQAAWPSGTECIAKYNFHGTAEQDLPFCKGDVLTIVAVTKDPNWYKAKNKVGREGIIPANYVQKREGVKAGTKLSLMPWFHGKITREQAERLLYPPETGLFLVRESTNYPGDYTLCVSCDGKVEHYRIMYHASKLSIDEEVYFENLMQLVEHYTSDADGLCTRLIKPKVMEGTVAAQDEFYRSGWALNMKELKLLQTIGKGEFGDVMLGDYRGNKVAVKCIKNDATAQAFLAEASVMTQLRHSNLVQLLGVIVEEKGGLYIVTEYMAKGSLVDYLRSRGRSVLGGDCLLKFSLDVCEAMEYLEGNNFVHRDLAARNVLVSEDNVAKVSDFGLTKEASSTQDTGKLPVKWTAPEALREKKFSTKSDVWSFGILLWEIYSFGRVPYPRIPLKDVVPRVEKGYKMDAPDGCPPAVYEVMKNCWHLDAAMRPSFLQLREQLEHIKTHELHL
# UniProt P48729: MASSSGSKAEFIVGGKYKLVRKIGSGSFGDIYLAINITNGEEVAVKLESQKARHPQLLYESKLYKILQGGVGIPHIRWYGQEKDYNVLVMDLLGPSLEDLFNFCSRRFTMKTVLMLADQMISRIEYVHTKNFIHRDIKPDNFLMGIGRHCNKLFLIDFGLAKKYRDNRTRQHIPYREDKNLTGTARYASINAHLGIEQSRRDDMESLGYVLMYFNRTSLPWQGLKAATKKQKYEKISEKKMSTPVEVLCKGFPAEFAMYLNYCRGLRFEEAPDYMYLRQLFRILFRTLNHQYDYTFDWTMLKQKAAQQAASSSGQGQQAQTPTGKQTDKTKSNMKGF
# UniProt P48730: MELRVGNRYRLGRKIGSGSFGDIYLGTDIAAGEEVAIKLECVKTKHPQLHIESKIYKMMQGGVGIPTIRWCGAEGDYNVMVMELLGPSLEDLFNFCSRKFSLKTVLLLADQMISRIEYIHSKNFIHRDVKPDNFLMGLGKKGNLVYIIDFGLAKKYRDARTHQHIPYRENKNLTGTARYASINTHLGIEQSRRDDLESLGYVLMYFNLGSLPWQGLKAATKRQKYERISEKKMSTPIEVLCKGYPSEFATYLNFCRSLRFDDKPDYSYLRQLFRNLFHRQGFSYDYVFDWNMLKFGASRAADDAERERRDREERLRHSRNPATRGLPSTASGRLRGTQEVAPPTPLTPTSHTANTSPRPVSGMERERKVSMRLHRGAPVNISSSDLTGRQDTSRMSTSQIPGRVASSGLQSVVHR
# UniProt Q08345: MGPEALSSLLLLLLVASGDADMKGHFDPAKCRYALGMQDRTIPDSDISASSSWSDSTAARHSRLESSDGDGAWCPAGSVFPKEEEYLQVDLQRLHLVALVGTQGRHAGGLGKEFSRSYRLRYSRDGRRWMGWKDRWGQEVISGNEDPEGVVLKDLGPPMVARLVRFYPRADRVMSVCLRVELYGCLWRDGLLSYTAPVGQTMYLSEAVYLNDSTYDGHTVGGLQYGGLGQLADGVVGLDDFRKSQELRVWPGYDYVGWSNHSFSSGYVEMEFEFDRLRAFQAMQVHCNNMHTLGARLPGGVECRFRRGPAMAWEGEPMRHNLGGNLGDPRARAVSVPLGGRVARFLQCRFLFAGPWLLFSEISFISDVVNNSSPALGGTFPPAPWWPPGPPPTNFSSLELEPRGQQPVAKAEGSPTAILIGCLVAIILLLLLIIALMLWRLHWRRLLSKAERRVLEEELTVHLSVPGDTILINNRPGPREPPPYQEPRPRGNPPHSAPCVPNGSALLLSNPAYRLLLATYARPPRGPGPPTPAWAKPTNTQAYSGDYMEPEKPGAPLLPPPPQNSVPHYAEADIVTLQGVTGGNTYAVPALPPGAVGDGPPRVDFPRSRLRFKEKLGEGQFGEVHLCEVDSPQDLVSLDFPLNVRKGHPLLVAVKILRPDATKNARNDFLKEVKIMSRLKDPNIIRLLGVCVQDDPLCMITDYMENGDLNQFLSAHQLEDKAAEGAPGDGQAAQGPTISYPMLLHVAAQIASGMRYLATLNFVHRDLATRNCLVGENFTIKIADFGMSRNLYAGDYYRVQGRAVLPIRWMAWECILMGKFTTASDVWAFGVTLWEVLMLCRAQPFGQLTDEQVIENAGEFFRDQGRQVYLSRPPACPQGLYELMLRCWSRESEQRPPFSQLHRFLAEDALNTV
# UniProt Q9Y463, whole entry, looked up: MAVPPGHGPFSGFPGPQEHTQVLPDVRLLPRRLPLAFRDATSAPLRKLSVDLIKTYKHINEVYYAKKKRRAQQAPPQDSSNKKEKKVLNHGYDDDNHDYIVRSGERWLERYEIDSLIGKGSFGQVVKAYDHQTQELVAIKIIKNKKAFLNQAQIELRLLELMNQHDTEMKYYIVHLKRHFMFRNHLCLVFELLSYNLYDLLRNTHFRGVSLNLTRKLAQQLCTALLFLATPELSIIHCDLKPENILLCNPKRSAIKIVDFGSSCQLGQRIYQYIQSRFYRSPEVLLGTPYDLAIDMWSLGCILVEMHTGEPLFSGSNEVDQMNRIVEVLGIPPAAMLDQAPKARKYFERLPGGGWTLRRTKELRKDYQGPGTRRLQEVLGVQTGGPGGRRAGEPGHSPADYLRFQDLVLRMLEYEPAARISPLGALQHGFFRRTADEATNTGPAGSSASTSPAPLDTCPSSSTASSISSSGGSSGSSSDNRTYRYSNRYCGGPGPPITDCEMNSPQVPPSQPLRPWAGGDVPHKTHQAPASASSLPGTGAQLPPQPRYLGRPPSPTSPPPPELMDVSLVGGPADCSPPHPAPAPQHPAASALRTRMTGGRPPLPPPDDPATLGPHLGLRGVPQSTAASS
# UniProt P21860, whole entry: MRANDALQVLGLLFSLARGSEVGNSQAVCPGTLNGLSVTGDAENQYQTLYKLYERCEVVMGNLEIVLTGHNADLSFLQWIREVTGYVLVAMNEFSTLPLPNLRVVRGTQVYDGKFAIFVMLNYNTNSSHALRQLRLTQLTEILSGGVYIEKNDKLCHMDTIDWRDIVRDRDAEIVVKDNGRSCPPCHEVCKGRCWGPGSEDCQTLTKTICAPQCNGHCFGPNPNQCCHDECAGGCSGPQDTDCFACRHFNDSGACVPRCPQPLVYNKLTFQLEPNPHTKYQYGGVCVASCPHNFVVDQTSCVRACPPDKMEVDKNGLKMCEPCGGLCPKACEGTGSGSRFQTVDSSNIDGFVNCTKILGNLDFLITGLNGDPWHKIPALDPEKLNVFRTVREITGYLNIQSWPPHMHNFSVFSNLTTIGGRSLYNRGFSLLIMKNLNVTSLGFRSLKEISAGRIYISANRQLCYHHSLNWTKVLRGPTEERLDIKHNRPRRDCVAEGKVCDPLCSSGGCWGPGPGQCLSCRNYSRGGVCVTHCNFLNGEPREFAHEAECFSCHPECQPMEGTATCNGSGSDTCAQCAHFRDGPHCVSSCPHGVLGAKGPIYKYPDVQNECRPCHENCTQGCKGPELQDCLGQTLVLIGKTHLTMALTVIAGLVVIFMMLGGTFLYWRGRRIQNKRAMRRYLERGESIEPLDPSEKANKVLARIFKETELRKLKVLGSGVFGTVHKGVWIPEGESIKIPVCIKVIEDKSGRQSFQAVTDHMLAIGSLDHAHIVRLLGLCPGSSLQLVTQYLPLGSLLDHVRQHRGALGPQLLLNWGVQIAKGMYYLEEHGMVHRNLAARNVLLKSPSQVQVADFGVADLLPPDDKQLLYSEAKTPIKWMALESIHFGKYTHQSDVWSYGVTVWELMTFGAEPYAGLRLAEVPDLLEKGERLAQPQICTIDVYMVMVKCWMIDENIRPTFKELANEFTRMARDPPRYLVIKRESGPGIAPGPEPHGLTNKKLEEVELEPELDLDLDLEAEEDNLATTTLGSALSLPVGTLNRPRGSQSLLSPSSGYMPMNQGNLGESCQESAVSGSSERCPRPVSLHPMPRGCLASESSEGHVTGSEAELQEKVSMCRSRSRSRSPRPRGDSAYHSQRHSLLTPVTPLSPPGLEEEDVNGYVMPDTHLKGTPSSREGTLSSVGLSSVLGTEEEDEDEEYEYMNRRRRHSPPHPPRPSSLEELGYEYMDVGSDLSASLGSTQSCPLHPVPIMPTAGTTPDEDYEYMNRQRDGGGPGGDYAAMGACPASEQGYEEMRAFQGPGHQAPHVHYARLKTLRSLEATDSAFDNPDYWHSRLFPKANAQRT
# The other results are listed elsewhere or left out. Hit calls seldom repeat between salt and free forms of one compound.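 In K562 cells expressing nanoluciferase-fused kinases, luminescence was recorded at 4 h intervals between 2 and 18 h, normalized as percent of control with DMSO at 100% and a positive control at 0%. A significant (2 sigma) signal drop marks a time point as decreased. The authors' rule for a hit is not shown and takes in more than the number of time points.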
# What was measured:
# Assay in all cases: kinase-Nluc reporter destabilization hit call (1 = scored as downregulated) (binary); higher = compound decreases kinase abundance
# Conditions in all cases: K562; 2-18 h
# [1] = biological target: CDK7 (UniProt P50613)
# [2] = biological target: CDK9 (UniProt P50750)
# [3] = biological target: CHEK2 (UniProt O96017)
# [4] = biological target: CSF1R (UniProt P07333)
# [5] = biological target: CSK (UniProt P41240)
# [6] = biological target: CSNK1A1 (UniProt P48729)
# [7] = biological target: CSNK1D (UniProt P48730)
# [8] = biological target: DDR1 (UniProt Q08345)
# [9] = biological target: DYRK1B (UniProt Q9Y463)
# [10] = biological target: DYRK2 (UniProt Q92630)
# [11] = biological target: EGFR (UniProt P00533)
# [12] = biological target: EGFR_G719S (UniProt P00533)
# [13] = biological target: EGFR_G719S_T790M (UniProt P00533)
# [14] = biological target: EGFR_L718V (UniProt P00533)
# [15] = biological target: EGFR_L858R (UniProt P00533)
# [16] = biological target: EGFR_L861Q (UniProt P00533)
# [17] = biological target: EGFR_T790M (UniProt P00533)
# [18] = biological target: EPHA2 (UniProt P29317)
# [19] = biological target: ERBB3 (UniProt P21860)
# [20] = biological target: ERBB4_R711C (clone: ERBB4_mut) (UniProt Q15303)
Structure (SMILES),kinase-Nluc reporter destabilization hit call [1],kinase-Nluc reporter destabilization hit call [2],kinase-Nluc reporter destabilization hit call [3],kinase-Nluc reporter destabilization hit call [4],kinase-Nluc reporter destabilization hit call [5],kinase-Nluc reporter destabilization hit call [6],kinase-Nluc reporter destabilization hit call [7],kinase-Nluc reporter destabilization hit call [8],kinase-Nluc reporter destabilization hit call [9],kinase-Nluc reporter destabilization hit call [10],kinase-Nluc reporter destabilization hit call [11],kinase-Nluc reporter destabilization hit call [12],kinase-Nluc reporter destabilization hit call [13],kinase-Nluc reporter destabilization hit call [14],kinase-Nluc reporter destabilization hit call [15],kinase-Nluc reporter destabilization hit call [16],kinase-Nluc reporter destabilization hit call [17],kinase-Nluc reporter destabilization hit call [18],kinase-Nluc reporter destabilization hit call [19],kinase-Nluc reporter destabilization hit call [20]
O=C(Nc1cccc(-c2nc(-c3ccc(NC(=O)c4cccnc4)cc3Cl)no2)c1)Nc1ccc(NC(=O)C2CC2)c(C(F)(F)F)c1 (2.5 µM),inactive: 0,inactive: 0,inactive: 0,inactive: 0,inactive: 0,inactive: 0,inactive: 0,inactive: 0,inactive: 0,inactive: 0,inactive: 0,inactive: 0,inactive: 0,inactive: 0,inactive: 0,inactive: 0,inactive: 0,inactive: 0,inactive: 0,inactive: 0
C=C1CCC[C@]2(C)C=C3OC(=O)C(C)=C3C[C@@H]12 [Atractylenolide I] (10 µM),inactive: 0,inactive: 0,inactive: 0,inactive: 0,inactive: 0,inactive: 0,inactive: 0,inactive: 0,inactive: 0,inactive: 0,inactive: 0,inactive: 0,inactive: 0,inactive: 0,inactive: 0,inactive: 0,inactive: 0,inactive: 0,inactive: 0,inactive: 0
C[C@@H](Nc1ncnc2[nH]c(-c3ccc(O)cc3)cc12)c1ccccc1 (2.5 µM),inactive: 0,inactive: 0,inactive: 0,inactive: 0,inactive: 0,inactive: 0,inactive: 0,inactive: 0,inactive: 0,inactive: 0,inactive: 0,inactive: 0,inactive: 0,inactive: 0,inactive: 0,inactive: 0,inactive: 0,inactive: 0,inactive: 0,inactive: 0
COc1cc2c(cc1O)C[C@H]1c3cc(O)c(OC)cc3CC[N@@+]1(C)C2 [Phellodendrine] (10 µM),inactive: 0,inactive: 0,inactive: 0,inactive: 0,inactive: 0,inactive: 0,inactive: 0,inactive: 0,inactive: 0,inactive: 0,inactive: 0,inactive: 0,inactive: 0,inactive: 0,inactive: 0,inactive: 0,inactive: 0,inactive: 0,inactive: 0,inactive: 0
O=C1CC[C@H](NC(=O)Cc2ccccc2)C(=O)N1 [Antineoplaston A10] (10 µM),inactive: 0,inactive: 0,inactive: 0,inactive: 0,inactive: 0,inactive: 0,inactive: 0,inactive: 0,inactive: 0,inactive: 0,inactive: 0,inactive: 0,inactive: 0,inactive: 0,inactive: 0,inactive: 0,inactive: 0,inactive: 0,inactive: 0,inactive: 0
O=C(Nc1ccc(Cl)cc1)C1CCCN(C(=O)c2cc(C(F)(F)F)cc(C(F)(F)F)c2)C1 (stereo not given) (10 µM),active: 1,inactive: 0,inactive: 0,inactive: 0,inactive: 0,inactive: 0,inactive: 0,active: 1,inactive: 0,inactive: 0,inactive: 0,inactive: 0,inactive: 0,inactive: 0,inactive: 0,inactive: 0,inactive: 0,inactive: 0,inactive: 0,inactive: 0
COc1cc2cc(Oc3ccc4ccc(=O)oc4c3)c(=O)oc2cc1O [Daphnoretin] (10 µM),inactive: 0,inactive: 0,inactive: 0,inactive: 0,inactive: 0,inactive: 0,inactive: 0,inactive: 0,inactive: 0,inactive: 0,inactive: 0,inactive: 0,inactive: 0,inactive: 0,inactive: 0,inactive: 0,inactive: 0,inactive: 0,inactive: 0,inactive: 0
COCCOCCc1c(C)c2cc(OC)c(O)c(C=O)c2oc1=O (10 µM),inactive: 0,inactive: 0,inactive: 0,inactive: 0,inactive: 0,inactive: 0,inactive: 0,inactive: 0,inactive: 0,inactive: 0,inactive: 0,inactive: 0,inactive: 0,inactive: 0,inactive: 0,inactive: 0,inactive: 0,inactive: 0,inactive: 0,inactive: 0
Cc1c(C(=O)Nc2ccc(Oc3ccnc4[nH]cc(-c5ccccc5)c34)c(F)c2)c(=O)n(-c2ccc(F)cc2)n1C (10 µM),inactive: 0,inactive: 0,inactive: 0,inactive: 0,inactive: 0,inactive: 0,inactive: 0,inactive: 0,inactive: 0,inactive: 0,inactive: 0,inactive: 0,inactive: 0,inactive: 0,inactive: 0,inactive: 0,inactive: 0,inactive: 0,inactive: 0,inactive: 0
CC(C)CCN1c2nc(Nc3cc(F)c(O)c(F)c3)ncc2N(C)C(=O)C1C (stereo not given) (2.5 µM),inactive: 0,inactive: 0,inactive: 0,inactive: 0,inactive: 0,inactive: 0,inactive: 0,inactive: 0,inactive: 0,inactive: 0,inactive: 0,inactive: 0,inactive: 0,inactive: 0,inactive: 0,inactive: 0,inactive: 0,inactive: 0,inactive: 0,inactive: 0
C=CC(=O)N1CCC[C@@H](n2nc(-c3ccc(Oc4ccccc4)cc3)c3c(N)n[nH]c(=O)c32)C1 [BTK inhibitor 17] (10 µM),inactive: 0,inactive: 0,inactive: 0,inactive: 0,inactive: 0,inactive: 0,inactive: 0,inactive: 0,inactive: 0,inactive: 0,inactive: 0,inactive: 0,inactive: 0,inactive: 0,inactive: 0,inactive: 0,inactive: 0,inactive: 0,inactive: 0,inactive: 0
CCNC(=O)C#Cc1ccc2c(C(=Nc3ccc(CN(C)C)cc3)c3ccccc3)c(O)[nH]c2c1 (2.5 µM),inactive: 0,inactive: 0,inactive: 0,inactive: 0,inactive: 0,inactive: 0,inactive: 0,inactive: 0,inactive: 0,inactive: 0,inactive: 0,inactive: 0,inactive: 0,inactive: 0,inactive: 0,inactive: 0,inactive: 0,inactive: 0,inactive: 0,inactive: 0

# A run of entries of the results above:
Structure (SMILES),kinase-Nluc reporter destabilization hit call [1],kinase-Nluc reporter destabilization hit call [2],kinase-Nluc reporter destabilization hit call [3],kinase-Nluc reporter destabilization hit call [4],kinase-Nluc reporter destabilization hit call [5],kinase-Nluc reporter destabilization hit call [6],kinase-Nluc reporter destabilization hit call [7],kinase-Nluc reporter destabilization hit call [8],kinase-Nluc reporter destabilization hit call [9],kinase-Nluc reporter destabilization hit call [10],kinase-Nluc reporter destabilization hit call [11],kinase-Nluc reporter destabilization hit call [12],kinase-Nluc reporter destabilization hit call [13],kinase-Nluc reporter destabilization hit call [14],kinase-Nluc reporter destabilization hit call [15],kinase-Nluc reporter destabilization hit call [16],kinase-Nluc reporter destabilization hit call [17],kinase-Nluc reporter destabilization hit call [18],kinase-Nluc reporter destabilization hit call [19],kinase-Nluc reporter destabilization hit call [20]
C[C@@H](Nc1ncnc2[nH]c(-c3ccc(O)cc3)cc12)c1ccccc1 (2.5 µM),inactive: 0,inactive: 0,inactive: 0,inactive: 0,inactive: 0,inactive: 0,inactive: 0,inactive: 0,inactive: 0,inactive: 0,inactive: 0,inactive: 0,inactive: 0,inactive: 0,inactive: 0,inactive: 0,inactive: 0,inactive: 0,inactive: 0,inactive: 0
COc1cc2c(cc1O)C[C@H]1c3cc(O)c(OC)cc3CC[N@@+]1(C)C2 [Phellodendrine] (10 µM),inactive: 0,inactive: 0,inactive: 0,inactive: 0,inactive: 0,inactive: 0,inactive: 0,inactive: 0,inactive: 0,inactive: 0,inactive: 0,inactive: 0,inactive: 0,inactive: 0,inactive: 0,inactive: 0,inactive: 0,inactive: 0,inactive: 0,inactive: 0
